From US20060134119A1, “Drugs containing galectin 9” (priority 2003, published 2006)
No constants are given. Whether binding was seen depends on the method and setting. For some of these results: Binding seen in cells or lysates may run through a third protein. Some results given as binding are weak or reduced against the parent protein; the word gives no strength.

Chains of the proteins cited; added tags and fusions are not shown. Lines headed by an entry give the natural chain unless they say otherwise; changes in a name come on top. A line that says so, or that is headed by a name, gives the form on record, which may keep a tag or linker. Residues count along the entry.
UniProt O00182, residues 210-355: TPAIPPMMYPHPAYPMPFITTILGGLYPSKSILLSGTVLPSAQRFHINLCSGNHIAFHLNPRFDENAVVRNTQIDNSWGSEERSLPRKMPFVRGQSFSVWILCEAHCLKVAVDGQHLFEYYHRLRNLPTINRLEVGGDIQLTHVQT
stromal cell derived factor receptor 1 isoform a (Q9Y639, form named): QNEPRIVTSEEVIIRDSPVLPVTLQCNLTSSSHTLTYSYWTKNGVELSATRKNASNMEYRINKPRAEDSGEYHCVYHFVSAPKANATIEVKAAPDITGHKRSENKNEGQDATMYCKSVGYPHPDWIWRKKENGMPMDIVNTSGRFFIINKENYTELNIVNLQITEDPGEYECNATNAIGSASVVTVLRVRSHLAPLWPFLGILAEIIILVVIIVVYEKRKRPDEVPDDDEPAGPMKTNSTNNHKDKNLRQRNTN
UniProt P28331, residues 24-727: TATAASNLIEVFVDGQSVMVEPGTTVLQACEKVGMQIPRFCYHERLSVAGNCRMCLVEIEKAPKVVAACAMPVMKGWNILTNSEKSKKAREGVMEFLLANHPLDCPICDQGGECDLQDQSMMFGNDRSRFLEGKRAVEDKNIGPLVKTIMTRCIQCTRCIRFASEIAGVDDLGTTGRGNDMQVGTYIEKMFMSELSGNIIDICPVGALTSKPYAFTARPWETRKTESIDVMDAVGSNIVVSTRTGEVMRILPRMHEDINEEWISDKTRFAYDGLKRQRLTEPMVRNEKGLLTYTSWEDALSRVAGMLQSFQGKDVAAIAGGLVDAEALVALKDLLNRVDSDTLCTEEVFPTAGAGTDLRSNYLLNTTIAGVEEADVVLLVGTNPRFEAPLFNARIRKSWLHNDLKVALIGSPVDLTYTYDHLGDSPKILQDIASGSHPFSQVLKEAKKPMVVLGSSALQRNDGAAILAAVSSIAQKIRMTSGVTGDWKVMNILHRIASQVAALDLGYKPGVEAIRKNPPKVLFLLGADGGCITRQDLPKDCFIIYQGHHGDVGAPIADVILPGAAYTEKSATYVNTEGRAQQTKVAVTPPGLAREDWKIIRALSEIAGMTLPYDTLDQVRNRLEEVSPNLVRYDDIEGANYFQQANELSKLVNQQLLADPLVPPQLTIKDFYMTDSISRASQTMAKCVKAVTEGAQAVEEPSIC
UniProt O95573: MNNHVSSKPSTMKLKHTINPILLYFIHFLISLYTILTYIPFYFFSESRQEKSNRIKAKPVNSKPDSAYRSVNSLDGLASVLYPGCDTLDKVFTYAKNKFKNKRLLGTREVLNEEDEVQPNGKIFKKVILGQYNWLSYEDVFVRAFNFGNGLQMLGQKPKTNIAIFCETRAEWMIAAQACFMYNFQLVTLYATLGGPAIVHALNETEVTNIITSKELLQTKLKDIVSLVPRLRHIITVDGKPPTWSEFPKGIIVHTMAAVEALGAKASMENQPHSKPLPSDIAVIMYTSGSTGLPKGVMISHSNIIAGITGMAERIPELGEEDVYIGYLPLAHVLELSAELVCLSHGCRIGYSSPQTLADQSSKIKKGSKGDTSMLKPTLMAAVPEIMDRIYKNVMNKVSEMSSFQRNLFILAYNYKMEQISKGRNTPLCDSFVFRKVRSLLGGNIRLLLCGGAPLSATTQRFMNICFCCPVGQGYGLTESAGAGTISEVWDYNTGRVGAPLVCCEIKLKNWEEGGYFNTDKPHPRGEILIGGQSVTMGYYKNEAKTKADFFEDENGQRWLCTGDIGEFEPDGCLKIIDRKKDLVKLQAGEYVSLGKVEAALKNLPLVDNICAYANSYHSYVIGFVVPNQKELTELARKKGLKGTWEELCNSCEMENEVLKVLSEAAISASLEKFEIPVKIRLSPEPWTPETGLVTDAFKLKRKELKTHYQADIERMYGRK
UniProt P11021, residues 19-654: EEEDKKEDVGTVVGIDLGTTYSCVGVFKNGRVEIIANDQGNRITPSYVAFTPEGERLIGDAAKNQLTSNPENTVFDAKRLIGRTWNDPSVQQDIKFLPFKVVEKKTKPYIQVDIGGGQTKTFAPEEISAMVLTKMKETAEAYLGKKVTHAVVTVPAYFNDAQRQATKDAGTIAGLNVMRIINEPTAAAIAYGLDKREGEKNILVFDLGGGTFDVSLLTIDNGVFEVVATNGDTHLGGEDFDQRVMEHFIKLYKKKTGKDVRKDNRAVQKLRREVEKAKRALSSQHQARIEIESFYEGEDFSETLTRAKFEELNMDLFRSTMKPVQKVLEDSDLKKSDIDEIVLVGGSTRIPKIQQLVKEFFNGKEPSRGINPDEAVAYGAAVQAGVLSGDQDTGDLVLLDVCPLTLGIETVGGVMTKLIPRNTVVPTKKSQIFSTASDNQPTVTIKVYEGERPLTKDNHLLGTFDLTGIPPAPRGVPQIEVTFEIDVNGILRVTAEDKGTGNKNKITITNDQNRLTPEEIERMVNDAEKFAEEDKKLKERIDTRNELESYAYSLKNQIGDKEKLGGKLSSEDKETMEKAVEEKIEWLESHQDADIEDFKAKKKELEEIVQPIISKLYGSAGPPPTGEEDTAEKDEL
heat shock 70 kDa protein 8 isoform 2 (P11142, form named): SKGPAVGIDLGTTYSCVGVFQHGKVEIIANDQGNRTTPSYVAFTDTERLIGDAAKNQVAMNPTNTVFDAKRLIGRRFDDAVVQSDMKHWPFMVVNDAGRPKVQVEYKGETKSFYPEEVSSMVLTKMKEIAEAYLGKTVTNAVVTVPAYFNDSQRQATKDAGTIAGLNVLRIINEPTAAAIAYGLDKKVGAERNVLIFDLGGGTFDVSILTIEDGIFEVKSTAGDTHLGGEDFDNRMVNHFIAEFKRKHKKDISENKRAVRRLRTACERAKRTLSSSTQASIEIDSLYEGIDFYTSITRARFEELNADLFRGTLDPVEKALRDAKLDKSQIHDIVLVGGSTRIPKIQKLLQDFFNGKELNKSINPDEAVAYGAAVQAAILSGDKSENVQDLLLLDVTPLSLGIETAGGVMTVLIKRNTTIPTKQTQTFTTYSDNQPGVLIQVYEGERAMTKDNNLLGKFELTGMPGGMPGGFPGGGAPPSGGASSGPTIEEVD
UniProt P38646, residues 47-679: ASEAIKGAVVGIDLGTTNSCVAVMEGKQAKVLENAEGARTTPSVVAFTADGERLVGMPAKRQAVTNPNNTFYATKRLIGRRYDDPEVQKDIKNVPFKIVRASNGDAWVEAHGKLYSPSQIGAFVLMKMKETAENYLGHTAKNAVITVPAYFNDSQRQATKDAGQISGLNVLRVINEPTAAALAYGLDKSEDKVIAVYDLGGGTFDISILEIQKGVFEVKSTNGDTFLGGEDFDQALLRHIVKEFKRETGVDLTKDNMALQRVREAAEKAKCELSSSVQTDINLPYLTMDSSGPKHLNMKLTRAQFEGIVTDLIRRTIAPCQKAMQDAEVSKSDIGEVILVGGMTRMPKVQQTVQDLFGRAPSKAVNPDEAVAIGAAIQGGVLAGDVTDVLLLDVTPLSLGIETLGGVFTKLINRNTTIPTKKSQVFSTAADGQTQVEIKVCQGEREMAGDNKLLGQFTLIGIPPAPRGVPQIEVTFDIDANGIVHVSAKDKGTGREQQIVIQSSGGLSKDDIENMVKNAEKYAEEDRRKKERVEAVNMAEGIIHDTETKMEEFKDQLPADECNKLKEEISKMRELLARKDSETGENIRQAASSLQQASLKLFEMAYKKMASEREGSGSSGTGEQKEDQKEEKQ
UniProt P10809, residues 27-573: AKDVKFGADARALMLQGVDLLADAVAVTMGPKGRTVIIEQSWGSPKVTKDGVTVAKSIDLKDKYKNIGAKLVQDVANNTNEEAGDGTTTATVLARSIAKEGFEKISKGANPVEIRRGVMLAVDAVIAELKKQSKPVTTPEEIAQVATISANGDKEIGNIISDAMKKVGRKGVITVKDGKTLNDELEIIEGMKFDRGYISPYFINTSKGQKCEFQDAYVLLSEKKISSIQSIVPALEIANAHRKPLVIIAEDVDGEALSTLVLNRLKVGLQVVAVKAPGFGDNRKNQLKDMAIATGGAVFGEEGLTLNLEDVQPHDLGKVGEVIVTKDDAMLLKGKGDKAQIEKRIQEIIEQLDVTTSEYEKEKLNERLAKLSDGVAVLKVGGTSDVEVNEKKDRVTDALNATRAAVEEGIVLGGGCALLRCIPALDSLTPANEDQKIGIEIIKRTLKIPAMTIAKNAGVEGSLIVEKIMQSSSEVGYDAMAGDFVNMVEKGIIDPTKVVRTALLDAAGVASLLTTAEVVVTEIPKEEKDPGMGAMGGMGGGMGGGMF
UniProt O43865, residues 2-530: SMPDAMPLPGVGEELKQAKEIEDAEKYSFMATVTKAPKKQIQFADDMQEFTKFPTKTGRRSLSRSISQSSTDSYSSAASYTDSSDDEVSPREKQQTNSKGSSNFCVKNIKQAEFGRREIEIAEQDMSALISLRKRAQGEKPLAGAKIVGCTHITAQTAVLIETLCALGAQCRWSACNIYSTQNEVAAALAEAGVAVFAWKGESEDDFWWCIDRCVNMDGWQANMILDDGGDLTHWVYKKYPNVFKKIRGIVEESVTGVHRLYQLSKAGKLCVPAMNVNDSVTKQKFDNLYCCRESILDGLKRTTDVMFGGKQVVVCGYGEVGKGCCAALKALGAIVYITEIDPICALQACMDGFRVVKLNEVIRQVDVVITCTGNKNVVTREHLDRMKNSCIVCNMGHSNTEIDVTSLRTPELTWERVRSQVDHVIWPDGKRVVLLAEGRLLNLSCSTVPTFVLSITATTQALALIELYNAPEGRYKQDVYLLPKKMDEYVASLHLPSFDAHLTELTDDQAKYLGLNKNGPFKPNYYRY
Hnrnp A1 (P09651, form named): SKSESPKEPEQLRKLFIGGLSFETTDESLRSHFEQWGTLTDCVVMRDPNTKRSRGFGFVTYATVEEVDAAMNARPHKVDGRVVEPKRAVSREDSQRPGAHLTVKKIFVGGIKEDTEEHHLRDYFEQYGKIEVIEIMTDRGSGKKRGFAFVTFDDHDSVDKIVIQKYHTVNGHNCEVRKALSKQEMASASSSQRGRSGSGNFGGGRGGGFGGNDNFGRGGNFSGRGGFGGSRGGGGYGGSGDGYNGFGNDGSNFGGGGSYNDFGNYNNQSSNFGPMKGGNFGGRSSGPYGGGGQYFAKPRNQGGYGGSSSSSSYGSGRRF
UniProt Q07021, residues 74-282: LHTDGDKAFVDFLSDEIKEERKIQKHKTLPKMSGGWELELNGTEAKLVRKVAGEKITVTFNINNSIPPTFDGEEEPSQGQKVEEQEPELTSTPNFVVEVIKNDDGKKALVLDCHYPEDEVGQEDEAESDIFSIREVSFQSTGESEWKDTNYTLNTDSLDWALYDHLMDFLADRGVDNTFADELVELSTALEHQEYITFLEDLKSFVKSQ
UniProt P21796, residues 2-283: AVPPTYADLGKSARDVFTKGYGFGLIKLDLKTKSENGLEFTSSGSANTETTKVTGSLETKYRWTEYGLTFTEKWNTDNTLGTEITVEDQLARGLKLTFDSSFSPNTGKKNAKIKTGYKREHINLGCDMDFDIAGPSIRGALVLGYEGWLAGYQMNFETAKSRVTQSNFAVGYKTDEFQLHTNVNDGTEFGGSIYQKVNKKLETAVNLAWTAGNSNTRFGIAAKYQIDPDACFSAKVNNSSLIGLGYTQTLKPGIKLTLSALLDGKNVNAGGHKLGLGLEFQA
UniProt O75947, residues 2-161: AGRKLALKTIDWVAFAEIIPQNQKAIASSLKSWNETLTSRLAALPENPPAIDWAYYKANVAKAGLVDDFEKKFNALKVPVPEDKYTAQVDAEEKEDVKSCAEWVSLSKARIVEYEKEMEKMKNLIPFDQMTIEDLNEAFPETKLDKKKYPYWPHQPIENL
UniProt O00217, residues 35-210: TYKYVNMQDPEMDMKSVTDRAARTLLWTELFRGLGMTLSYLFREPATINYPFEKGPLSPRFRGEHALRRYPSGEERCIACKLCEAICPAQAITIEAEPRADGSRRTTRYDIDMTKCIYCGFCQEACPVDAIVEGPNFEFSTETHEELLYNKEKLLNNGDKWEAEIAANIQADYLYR
UniProt O75396, residues 2-215: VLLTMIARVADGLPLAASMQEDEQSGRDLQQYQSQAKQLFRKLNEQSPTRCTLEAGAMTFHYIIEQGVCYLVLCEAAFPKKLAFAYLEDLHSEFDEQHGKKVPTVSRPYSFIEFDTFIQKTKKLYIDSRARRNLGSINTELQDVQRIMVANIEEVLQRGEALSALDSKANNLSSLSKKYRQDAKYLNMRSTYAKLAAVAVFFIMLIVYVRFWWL

B1: farnesyl-diphosphate farnesyltransferase 1 (enzyme, human, UniProt P37268 1-417, looked up)
chain: MEFVKCLGHPEEFYNLVRFRIGGKRKVMPKMDQDSLSSSLKTCYKYLNQTSRSFAAVIQALDGEMRNAVCIFYLVLRALDTLEDDMTISVEKKVPLLHNFHSFLYQPDWRFMESKEKDRQVLEDFPTISLEFRNLAEKYQTVIADICRRMGIGMAEFLDKHVTSEQEWDKYCHYVAGLVGIGLSRLFSASEFEDPLVGEDTERANSMGLFLQKTNIIRDYLEDQQGGREFWPQEVWSRYVKKLGDFAKPENIDLAVQCLNELITNALHHIPDVITYLSRLRNQSVFNFCAIPQVMAIATLAACYNNQQVFKGAVKIRKGQAVTLMMDATNMPAVKAIIYQYMEEIYHRIPDSDPSSSKTRQIISTIRTQNLPNCQLISRSHYSPIYLSFVMLLAALSWQYLTTLSQVTEDYVQTGEH
B2: dolichyl-diphosphooligosaccharide-protein glycosyltransferase (enzyme, human, UniProt P39656 43-456, looked up)
chain: SGPRTLVLLDNLNVRETHSLFFRSLKDRGFELTFKTADDPSLSLIKYGEFLYDNLIIFSPSVEDFGGNINVETISAFIDGGGSVLVAASSDIGDPLRELGSECGIEFDEEKTAVIDHHNYDISDLGQHTLIVADTENLLKAPTIVGKSSLNPILFRGVGMVADPDNPLVLDILTGSSTSYSFFPDKPITQYPHAVGKNTLLIAGLQARNNARVIFSGSLDFFSDSFFNSAVQKAAPGSQRYSQTGNYELAVALSRWVFKEEGVLRVGPVSHHRVGETAPPNAYTVTDLVEYSIVIQQLSNGKWVPFDGDDIQLEFVRIDPFVRTFLKKKGGKYSVQFKLPDVYGVFQFKVDYNRLGYTHLYSSTQVSVRPLQHTQYERFIPSAYPYYASAFSMMLGLFIFSIVFLHMKEKEKSD
B3: sideroflexin 1 (protein, human, UniProt Q9H9B4 2-322, looked up)
chain: SGELPPNINIKEPRWDQSTFIGRANHFFTVTDPRNILLTNEQLESARKIVHDYRQGIVPPGLTENELWRAKYIYDSAFHPDTGEKMILIGRMSAQVPMNMTITGCMMTFYRTTPAVLFWQWINQSFNAVVNYTNRSGDAPLTVNELGTAYVSATTGAVATALGLNALTKHVSPLIGRFVPFAAVAAANCINIPLMRQRELKVGIPVTDENGNRLGESANAAKQAITQVVVSRILMAAPGMAIPPFIMNTLEKKAFLKRFPWMSAPIQVGLVGFCLVFATPLCCALFPQKSSMSVTSLEAELQAKIQESHPELRRVYFNKGL
B4: metaxin 1 (protein, human, UniProt Q13505-3 1-317, looked up)
chain: MAAPMELFCWSGGWGLPSVDLDSLAVLTYARFTGAPLKVHKISNPWQSPSGTLPALRTSHGEVISVPHKIITHLRKEKYNADYDLSARQGADTLAFMSLLEEKLLPVLVHTFWIDTKNYVEVTRKWYAEAMPFPLNFFLPGRMQRQYMERLQLLTGEHRPEDEEELEKELYREARECLTLLSQRLGSQKFFFGDAPASLDAFVFSYLALLLQAKLPSGKLQVHLRGLHNLCAYCTHILSLYFPWDGAEVPPQRQTPAGPETEEEPYRRRNQILSVLAGLAAMVGYALLSGIVSIQRATPARAPGTRTLGMAEEDEEE
B5: phosphate carrier precursor isoform 1b (protein, human, UniProt Q00325-2 50-361, looked up)
chain: AVEEYSCEFGSAKYYALCGFGGVLSCGLTHTAVVPLDLVKCRMQVDPQKYKGIFNGFSVTLKEDGVRGLAKGWAPTFLGYSMQGLCKFGFYEVFKVLYSNMLGEENTYLWRTSLYLAASASAEFFADIALAPMEAAKVRIQTQPGYANTLRDAAPKMYKEEGLKAFYKGVAPLWMRQIPYTMMKFACFERTVEALYKFVVPKPRSECSKPEQLVVTFVAGYIAGVFCAIVSHPADSVVSVLNKEKGSSASLVLKRLGFKGVWKGLFARIIMIGTLTALQWFIYDSVKVYFRLPRPPPPEMPESLKKKLGLTQ
B6: 3-hydroxybutyrate dehydrogenase precursor (enzyme, human, UniProt Q02338 47-343, looked up)
chain: ASAAEPVGSKAVLVTGCDSGFGFSLAKHLHSKGFLVFAGCLMKDKGHDGVKELDSLNSDRLRTVQLNVCSSEEVEKVVEIVRSSLKDPEKGMWGLVNNAGISTFGEVEFTSLETYKQVAEVNLWGTVRMTKSFLPLIRRAKGRVVNISSMLGRMANPARSPYCITKFGVEAFSDCLRYEMYPLGVKVSVVEPGNFIAATSLYSPESIQAIAKKMWEELPEVVRKDYGKKYFDEKIAKMETYCSSGSTDTSPVIDAVTHALTATTPYTRYHPMDYYWWLRMQIMTHLPGAISDMIYIR
B7: solute carrier family 25 (mitochondrial carrier; oxoglutarate carrier), member 11 (protein, human, UniProt Q02978 2-314, looked up)
chain: AATASAGAGGIDGKPRTSPKSVKFLFGGLAGMGATVFVQPLDLVKNRMQLSGEGAKTREYKTSFHALTSILKAEGLRGIYTGLSAGLLRQATYTTTRLGIYTVLFERLTGADGTPPGFLLKAVIGMTAGATGAFVGTPAEVALIRMTADGRLPADQRRGYKNVFNALIRITREEGVLTLWRGCIPTMARAVVVNAAQLASYSQSKQFLLDSGYFSDNILCHFCASMISGLVTTAASMPVDIAKTRIQNMRMIDGKPEYKNGLDVLFKVVRYEGFFSLWKGFTPYYARLGPHTVLTFIFLEQMNKAYKRLFLSG
B8: androgen-regulated short-chain dehydrogenase/reductase 1 (enzyme, human, UniProt Q8TC12 1-318, looked up)
chain: MVELMFPLLLLLLPFLLYMAAPQIRKMLSSGVCTSTVQLPGKVVVVTGANTGIGKETAKELAQRGARVYLACRDVEKGELVAKEIQTTTGNQQVLVRKLDLSDTKSIRAFAKGFLAEEKHLHVLINNAGVMMCPYSKTADGFEMHIGVNHLGHFLLTHLLLEKLKESAPSRIVNVSSLAHHLGRIHFHNLQGEKFYNAGLAYCHSKLANILFTQELARRLKGSGVTTYSVHPGTVQSELVRHSSFMRWMWWLFSFFIKTPQQGAQTSLHCALTEGLEILSGNHFSDCHVAWVSAQARNETIARRLWDVSCDLLGLPID
B9: ATP synthase, H^+ transporting, mitochondrial F1 complex, O subunit (enzyme, human, UniProt P48047 24-213, looked up)
chain: FAKLVRPPVQVYGIEGRYATALYSAASKQNKLEQVEKELLRVAQILKEPKVAASVLNPYVKRSIKVKSLNDITAKERFSPLTTNLINLLAENGRLSNTQGVVSAFSTMMSVHRGEVPCTVTSASPLEEATLSELKTVLKSFLSQGQVLKLEAKTDPSILGGMIVRIGEKYVDMSVKTKIQKLGRAMREIV
B10: ATP synthase, H^+ transporting, mitochondrial F0 complex, subunit b, isoform 1 (enzyme, human, UniProt P24539 43-256, looked up)
chain: PVPPLPEYGGKVRYGLIPEEFFQFLYPKTGVTGPYVLGTGLILYALSKEIYVISAETFTALSVLGVMVYGIKKYGPFVADFADKLNEQKLAQLEEAKQASIQHIQNAIDTEKSQQALVQKRHYLFDVQRNNIAMALEVTYRERLYRVYKEVKNRLDYHISVQNMMRRKEQEHMINWVEKHVVQSISTQQEKETIAKCIADLKLLAKKAQAQPVM

molecular target: GST gal9CT (GST-fused galectin-9 C-terminal region, immobilised on a column) (human) (UniProt O00182); experiment: GST-gal9CT affinity column, MOLT-4 detergent extract after GST pre-column, 200 mM lactose elution; SDS-PAGE Band 1, LC-MS/MS (Mascot)

binding, binds:
4F2 heavy chain antigen (from UniProt P08195 2-529)
heat shock 90 kDa protein 1, beta (from UniProt P08238 2-724)
stromal cell derived factor receptor 1 isoform a (from UniProt Q9Y639 29-282)

molecular target: GST gal9CT (GST-fused galectin-9 C-terminal region, immobilised on a column) (human) (UniProt O00182); experiment: GST-gal9CT affinity column, MOLT-4 detergent extract after GST pre-column, 200 mM lactose elution; SDS-PAGE Band 2, LC-MS/MS (Mascot)

binding, binds:
NADH dehydrogenase (ubiquinone) Fe-S protein 1, 75 kDa (NADH-coenzyme Q reductase) (from UniProt P28331 24-727)
fatty-acid-Coenzyme A ligase, long-chain 3 (from UniProt O95573 1-720)
heat shock 70 kDa protein 5 (glucose-regulated protein, 78 kDa) (from UniProt P11021 19-654)
heat shock 70 kDa protein 8 isoform 2 (from UniProt P11142 2-493)
heat shock 70 kDa protein 9B precursor (from UniProt P38646 47-679)

molecular target: GST gal9CT (GST-fused galectin-9 C-terminal region, immobilised on a column) (human) (UniProt O00182); experiment: GST-gal9CT affinity column, MOLT-4 detergent extract after GST pre-column, 200 mM lactose elution; SDS-PAGE Band 3, LC-MS/MS (Mascot)

binding, binds:
60 kDa heat shock protein, mitochondrial precursor (from UniProt P10809 27-573)
S-adenosylhomocysteine hydrolase-like 1 (from UniProt O43865 2-530)

molecular target: GST gal9CT (GST-fused galectin-9 C-terminal region, immobilised on a column) (human) (UniProt O00182); experiment: GST-gal9CT affinity column, MOLT-4 detergent extract after GST pre-column, 200 mM lactose elution; SDS-PAGE Band 5, LC-MS/MS (Mascot)

binding, binds:
B1
B2

molecular target: GST gal9CT (GST-fused galectin-9 C-terminal region, immobilised on a column) (human) (UniProt O00182); experiment: GST-gal9CT affinity column, MOLT-4 detergent extract after GST pre-column, 200 mM lactose elution; SDS-PAGE Band 7, LC-MS/MS (Mascot)

binding, binds:
Hnrnp A1 (from UniProt P09651 2-320)
B3
B4

molecular target: GST gal9CT (GST-fused galectin-9 C-terminal region, immobilised on a column) (human) (UniProt O00182); experiment: GST-gal9CT affinity column, MOLT-4 detergent extract after GST pre-column, 200 mM lactose elution; SDS-PAGE Band 8, LC-MS/MS (Mascot)

binding, binds:
hyaluronan-binding protein precursor (from UniProt Q07021 74-282)
voltage-dependent anion channel 1 (from UniProt P21796 2-283)
B3
B5
B6
B7
B8

molecular target: GST gal9CT (GST-fused galectin-9 C-terminal region, immobilised on a column) (human) (UniProt O00182); experiment: GST-gal9CT affinity column, MOLT-4 detergent extract after GST pre-column, 200 mM lactose elution; SDS-PAGE Band 9, LC-MS/MS (Mascot)

binding, binds:
ATP synthase, H^+ transporting, mitochondrial F0 complex, subunit d (from UniProt O75947 2-161) (enzyme)
NADH dehydrogenase (ubiquinone) Fe-S protein 8, 23 kDa (NADH-coenzyme Q reductase) (from UniProt O00217 35-210)
vesicle trafficking protein sec22b (from UniProt O75396 2-215)
B9
B10

molecular target: GST gal9CT (GST-fused galectin-9 C-terminal region, immobilised on a column) (human) (UniProt O00182); experiment: GST-gal9CT affinity column, MOLT-4 detergent extract after GST pre-column, 200 mM lactose elution; SDS-PAGE band C, internal sequence analysis

binding, binds:
ATP synthase, beta chain (from UniProt P06576 48-529) (enzyme)
